# From the supplement of paper PMC8728848
# Some of the results follow.
# B1: CD72 ectodomain (Homo sapiens), P21854 (protein)
# chain: RYLQVSQQLQQTNRVLEVTNSSLRQQLRLKITQLGQSAEDLQGSRRELAQSQEALQVEQRAHQAAEGQLQACQADRQKTKETLQSEEQQRRALEQKLSNMENRLKPFFTCGSADTCCPSGWIMHQKSCFYISLTSKNWQESQKQCETLSSKLATFSEIYPQSHSYYFLNSLLPNGGSGNSYWTGLSSNKDWKLTDDTQRTRTYAQSSKCNKVHKTWSWWTLESESCRSSLPYICEMTAFRFPD
# How the values were obtained:
# Experiment in all cases: glycan array binding signal (z-score within array); higher = stronger binding
# Settings in all cases: glycan notation: IUPAC condensed, linker removed
# [1] = molecular target: Gal(b1-3)GlcNAc(b1-3)Gal(b1-4)GlcNAc(b1-6)[Gal(b1-3)GlcNAc(b1-3)]Gal(b1-4)Glc
# Procedure, shortened: (§1)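 Glycan array data were curated from 3228 arrays in the Consortium for Functional Glycomics database and kept only where the protein sequence was available. Glycan names were converted to IUPAC-condensed notation, and columns mapping to the same glycan were averaged. The binding signal is a within-array Z-score, averaged across arrays of the same protein sequence at different concentrations or buffers and across linkers. Negative Z-scores can be read as non-binding.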
# [2] = molecular target: Gal(b1-3)GlcNAc(b1-3)Gal(b1-4)[Fuc(a1-3)]GlcNAc(b1-6)[Gal(b1-3)GlcNAc(b1-3)]Gal(b1-4)Glc
# Procedure, shortened: as §1
# [3] = molecular target: Gal(b1-3)GlcNAc(b1-3)GalNAc
# Procedure, shortened: as §1
# [4] = molecular target: Gal(b1-3)GlcNAc(b1-6)Gal(b1-4)GlcNAc
# Procedure, shortened: as §1
# [5] = molecular target: Gal(b1-3)[Fuc(a1-4)]GlcNAc
# Procedure, shortened: as §1
# [6] = molecular target: Gal(b1-3)[Fuc(a1-4)]GlcNAc(b1-2)Man(a1-3)[Gal(b1-3)[Fuc(a1-4)]GlcNAc(b1-2)Man(a1-6)]Man(b1-4)GlcNAc(b1-4)GlcNAc
# Procedure, shortened: as §1
# [7] = molecular target: Gal(b1-3)[Fuc(a1-4)]GlcNAc(b1-2)Man(a1-3)[Gal(b1-3)[Fuc(a1-4)]GlcNAc(b1-2)Man(a1-6)]Man(b1-4)GlcNAc(b1-4)[Fuc(a1-6)]GlcNAc
# Procedure, shortened: as §1
# [8] = molecular target: Gal(b1-3)[Fuc(a1-4)]GlcNAc(b1-3)Gal(b1-3)[Fuc(a1-4)]GlcNAc
# Procedure, shortened: as §1
# [9] = molecular target: Gal(b1-3)[Fuc(a1-4)]GlcNAc(b1-3)Gal(b1-4)GlcNAc
# Procedure, shortened: as §1
# [10] = molecular target: Gal(b1-3)[Fuc(a1-4)]GlcNAc(b1-3)Gal(b1-4)[Fuc(a1-3)]GlcNAc
# Procedure, shortened: as §1
# [11] = molecular target: Gal(b1-3)[GlcNAc(b1-6)]GalNAc
# Procedure, shortened: as §1
# [12] = molecular target: Gal(b1-3)[Neu5Ac(a2-6)]GalNAc
# Procedure, shortened: as §1
# [13] = molecular target: Gal(b1-3)[Neu5Ac(a2-6)]GlcNAc(b1-6)Gal(b1-4)Glc
# Procedure, shortened: as §1
# [14] = molecular target: Gal(b1-3)[Neu5Ac(b2-6)]GalNAc
# Procedure, shortened: as §1
# Gal(b1-4)Gal = molecular target: Gal(b1-4)Gal
# Procedure, shortened: as §1
# [15] = molecular target: Gal(b1-4)GalNAc(a1-3)[Fuc(a1-2)]Gal(b1-4)GlcNAc
# Procedure, shortened: as §1
# [16] = molecular target: Gal(b1-4)GalNAc(b1-3)[Fuc(a1-2)]Gal(b1-4)GlcNAc
# Procedure, shortened: as §1
# Gal(b1-4)Glc = molecular target: Gal(b1-4)Glc
# Procedure, shortened: as §1
# Gal(b1-4)Glc6S = molecular target: Gal(b1-4)Glc6S
# Procedure, shortened: as §1
# Gal(b1-4)GlcNAc = molecular target: Gal(b1-4)GlcNAc
# Procedure, shortened: as §1
# [17] = molecular target: Gal(b1-4)GlcNAc(a1-6)Gal(b1-4)GlcNAc
# Procedure, shortened: as §1
# Gal(b1-4)GlcNAc(b1-2)Man = molecular target: Gal(b1-4)GlcNAc(b1-2)Man
# Procedure, shortened: as §1
# [18] = molecular target: Gal(b1-4)GlcNAc(b1-2)Man(a1-3)Man(b1-4)GlcNAc(b1-4)GlcNAc
# Procedure, shortened: as §1
# [19] = molecular target: Gal(b1-4)GlcNAc(b1-2)Man(a1-3)[Gal(b1-4)GlcNAc(b1-2)Man(a1-6)]Man(b1-4)GlcNAc(b1-4)GlcNAc
# Procedure, shortened: as §1
# [20] = molecular target: Gal(b1-4)GlcNAc(b1-2)Man(a1-3)[Gal(b1-4)GlcNAc(b1-2)Man(a1-6)]Man(b1-4)GlcNAc(b1-4)[Fuc(a1-6)]GlcNAc
# Procedure, shortened: as §1
# [21] = molecular target: Gal(b1-4)GlcNAc(b1-2)Man(a1-3)[Gal(b1-4)GlcNAc(b1-2)][GlcNAc(b1-4)]Man(b1-4)GlcNAc(b1-4)GlcNAc
# Procedure, shortened: as §1
# [22] = molecular target: Gal(b1-4)GlcNAc(b1-2)Man(a1-3)[GlcNAc(b1-2)Man(a1-6)]Man(b1-4)GlcNAc(b1-4)GlcNAc
# Procedure, shortened: as §1
# [23] = molecular target: Gal(b1-4)GlcNAc(b1-2)Man(a1-3)[Man(a1-6)]Man(b1-4)GlcNAc(b1-4)GlcNAc
# Procedure, shortened: as §1
# [24] = molecular target: Gal(b1-4)GlcNAc(b1-2)Man(a1-6)Man(b1-4)GlcNAc(b1-4)GlcNAc
# Procedure, shortened: as §1
# [25] = molecular target: Gal(b1-4)GlcNAc(b1-2)Man(a1-6)[GlcNAc(b1-2)Man(a1-3)]Man(b1-4)GlcNAc(b1-4)GlcNAc
# Procedure, shortened: as §1
# [26] = molecular target: Gal(b1-4)GlcNAc(b1-2)Man(a1-6)[Man(a1-3)]Man(b1-4)GlcNAc(b1-4)GlcNAc
# Procedure, shortened: as §1
# [27] = molecular target: Gal(b1-4)GlcNAc(b1-2)[Gal(b1-4)GlcNAc(b1-4)]Man(a1-3)[Gal(b1-4)GlcNAc(b1-2)Man(a1-6)]Man(b1-4)GlcNAc(b1-4)GlcNAc
# Procedure, shortened: as §1
# [28] = molecular target: Gal(b1-4)GlcNAc(b1-2)[Gal(b1-4)GlcNAc(b1-4)]Man(a1-3)[Gal(b1-4)GlcNAc(b1-2)[Gal(b1-4)GlcNAc(b1-6)]Man(a1-6)]Man(b1-4)GlcNAc(b1-4)GlcNAc
# Procedure, shortened: as §1
# [29] = molecular target: Gal(b1-4)GlcNAc(b1-2)[Gal(b1-4)GlcNAc(b1-4)]Man(a1-3)[GlcNAc(b1-4)][Gal(b1-4)GlcNAc(b1-2)Man(a1-6)]Man(b1-4)GlcNAc(b1-4)GlcNAc
# Procedure, shortened: as §1
# [30] = molecular target: Gal(b1-4)GlcNAc(b1-2)[Gal(b1-4)GlcNAc(b1-4)]Man(a1-3)[GlcNAc(b1-4)][Gal(b1-4)GlcNAc(b1-2)[Gal(b1-4)GlcNAc(b1-6)]Man(a1-6)]Man(b1-4)GlcNAc(b1-4)GlcNAc
# Procedure, shortened: as §1
# [31] = molecular target: Gal(b1-4)GlcNAc(b1-2)[Gal(b1-4)GlcNAc(b1-6)]Man(a1-6)[Gal(b1-4)GlcNAc(b1-2)Man(a1-3)]Man(b1-4)GlcNAc(b1-4)GlcNAc
# Procedure, shortened: as §1
# [32] = molecular target: Gal(b1-4)GlcNAc(b1-2)[Gal(b1-4)GlcNAc(b1-6)]Man(a1-6)[GlcNAc(b1-4)][Gal(b1-4)GlcNAc(b1-2)Man(a1-3)]Man(b1-4)GlcNAc(b1-4)GlcNAc
# Procedure, shortened: as §1
# [33] = molecular target: Gal(b1-4)GlcNAc(b1-3)Gal(b1-3)GlcNAc
# Procedure, shortened: as §1
binder,measurement,setting,value
B1,glycan array binding signal (z-score),[1],0.052
same,glycan array binding signal (z-score),[2],2.26
same,glycan array binding signal (z-score),[3],-0.526
same,glycan array binding signal (z-score),[4],-0.876
same,glycan array binding signal (z-score),[5],-1.61
same,glycan array binding signal (z-score),[6],0.257
same,glycan array binding signal (z-score),[7],-0.57
same,glycan array binding signal (z-score),[8],0.642
same,glycan array binding signal (z-score),[9],-0.061
same,glycan array binding signal (z-score),[10],-1.62
same,glycan array binding signal (z-score),[11],-0.353
same,glycan array binding signal (z-score),[12],1.43
same,glycan array binding signal (z-score),[13],-0.084
same,glycan array binding signal (z-score),[14],0.55
same,glycan array binding signal (z-score),Gal(b1-4)Gal,-0.485
same,glycan array binding signal (z-score),[15],-0.011
same,glycan array binding signal (z-score),[16],-0.019
same,glycan array binding signal (z-score),Gal(b1-4)Glc,-1.2
same,glycan array binding signal (z-score),Gal(b1-4)Glc6S,-0.067
same,glycan array binding signal (z-score),Gal(b1-4)GlcNAc,0.258
same,glycan array binding signal (z-score),[17],-0.72
same,glycan array binding signal (z-score),Gal(b1-4)GlcNAc(b1-2)Man,0.51
same,glycan array binding signal (z-score),[18],1.39
same,glycan array binding signal (z-score),[19],0.293
same,glycan array binding signal (z-score),[20],1.17
same,glycan array binding signal (z-score),[21],1.05
same,glycan array binding signal (z-score),[22],0.532
same,glycan array binding signal (z-score),[23],1.3
same,glycan array binding signal (z-score),[24],1.33
same,glycan array binding signal (z-score),[25],0.352
same,glycan array binding signal (z-score),[26],0.823
same,glycan array binding signal (z-score),[27],-0.421
same,glycan array binding signal (z-score),[28],-0.561
same,glycan array binding signal (z-score),[29],0.003
same,glycan array binding signal (z-score),[30],-1.77
same,glycan array binding signal (z-score),[31],0.172
same,glycan array binding signal (z-score),[32],-0.655
same,glycan array binding signal (z-score),[33],-0.795

# For convenience, part of the list above:
binder,measurement,setting,value
B1,glycan array binding signal (z-score),[2],2.26
same,glycan array binding signal (z-score),[3],-0.526
same,glycan array binding signal (z-score),[4],-0.876
same,glycan array binding signal (z-score),[5],-1.61
same,glycan array binding signal (z-score),[6],0.257
same,glycan array binding signal (z-score),[7],-0.57
same,glycan array binding signal (z-score),[8],0.642
same,glycan array binding signal (z-score),[9],-0.061
same,glycan array binding signal (z-score),[10],-1.62
same,glycan array binding signal (z-score),[11],-0.353
